Source: PubChem BioAssay AID624246 (National Center for Advancing Translational Sciences (NCATS), 2012)
The whole screen tested about 370,000 compounds, of which about 100 (0.027%) were called active. Inconclusive results, whose numbers are uncertain, are shown with a selection of clear calls. Calls come from the whole dose curve; as a rule, active = well fitted inhibition curve with a large enough effect in the polarisation, with a control signal flat; inconclusive = small, poorly fitted or top-dose-only effect, or effect the other way, or a change in a side signal; inactive = no such curve, though single readings can be large or run the other way; the % refers to the polarisation. Where the call is inconclusive, the potency comes from a doubtful curve fit. “Side channel” marks fits to a control or component signal instead of the main read-out.

Sequences of proteins named here, by UniProt entry; tags and fusion partners are left off. A change or cut given only in a name is not applied to a line headed by its entry.
UniProt P11308: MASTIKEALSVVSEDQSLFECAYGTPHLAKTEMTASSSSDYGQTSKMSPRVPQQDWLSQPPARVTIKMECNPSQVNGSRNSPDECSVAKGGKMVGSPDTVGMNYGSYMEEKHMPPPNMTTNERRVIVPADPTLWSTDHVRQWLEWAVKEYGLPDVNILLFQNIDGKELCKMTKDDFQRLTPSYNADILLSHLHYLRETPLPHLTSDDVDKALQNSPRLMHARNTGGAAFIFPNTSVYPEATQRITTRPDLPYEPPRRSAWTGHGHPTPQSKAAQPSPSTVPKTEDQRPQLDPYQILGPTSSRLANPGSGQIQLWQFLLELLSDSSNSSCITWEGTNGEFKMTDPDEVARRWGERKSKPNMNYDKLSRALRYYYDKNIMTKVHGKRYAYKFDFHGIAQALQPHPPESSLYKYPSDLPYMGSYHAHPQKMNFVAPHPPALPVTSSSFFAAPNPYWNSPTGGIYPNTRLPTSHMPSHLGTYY

biological target: Transcriptional regulator ERG (Homo sapiens) (UniProt P11308); test: qHTS for Small Molecule Inhibitors of the ERG Ets/DNA interaction; conditions: fluorescence polarization, His-ERG Ets domain / labelled DNA; FP activity, negative = inhibition: at 76.9 µM (top of the series); for FP activity, negative = inhibition: % of control where 0% means no effect
In short: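 His-tagged ERG Ets domain (1 uM in the protein solution; 300mM KCl, 50mM Tris-HCl, 1mM EDTA, 1mM DTT, pH 7.5) received compound, then a probe mix of 5 nM fluorescein-DNA and 100nM Texas-615-DNA. Fluorescence polarization was read for both dyes.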
Potency is the fitted concentration of half-maximal effect.

Structure (SMILES)	Potency	FP activity, negative = inhibition
CS(=O)(=O)NN1C(=O)c2ccccc2NC1c1cccc(O)c1 (centres undefined)	inconclusive: 5.62 µM [inhibitor, single point]	
CCN(CC)Cc1c(O)c(Cl)cc2c(C)cc(=O)oc12	inconclusive: 35.5 µM [inhibitor, partial curve]	
COC(=O)c1c(C)[nH]c(C(=O)C(C)OC(=O)c2cc(C)oc2C)c1C (centres undefined)	inconclusive: 11.2 µM [inhibitor, single point]	
CCN(CC)c1ccc(/C=C2\C(=O)c3ccc(C(=O)O)cc3C2=O)cc1	inconclusive: 14.1 µM [fluorescent, side channel, partial curve]	
O=C(NNc1cc(N2CCOCC2)nc(N2CCOCC2)n1)c1ccc([N+](=O)[O-])cc1	inconclusive: 50.1 µM [inhibitor, single point]	
CCCCc1nc2sc3c(=O)[nH]c(=S)[nH]c3c2c2c1CCC2	inconclusive: 3.55 µM [inhibitor, partial curve, poor fit]	
Cc1ccc(C(=O)Nc2ccc(C(=O)N/N=C/c3c[nH]c4ccccc34)cc2)cc1	inconclusive: 5.01 µM [inhibitor, partial curve, poor fit]	
C/C(=N\NC(=O)c1cccc(N/N=C(\C)c2cc(O)ccc2O)c1)c1cc(O)ccc1O	inconclusive: 0.794 µM [quencher, side channel, full curve, poor fit]	
O=C(NCCN1CCN(C(=O)c2c(F)cccc2F)CC1)C(=O)Nc1ccc(Cl)cc1	inconclusive: 5.62 µM [inhibitor, single point]	
O=C(COC(=O)c1ccc(F)cc1F)c1ccc[nH]1	inconclusive: 7.08 µM [inhibitor, partial curve, poor fit]	
Cc1cccc2sc(N(CCCN(C)C)C(=O)c3ccco3)nc12		inactive: 0.717%
COc1ccc(CNC(=O)CCCN2C(=O)CSc3c2c(C)nn3-c2ccccc2)c(OC)c1		inactive: 1.83%
COc1ccc(CCC(=O)NC2CC(=O)N(c3cccc(F)c3)C2)cc1 (centres undefined)		inactive: -21.2%
Cc1noc(C)c1COC(=O)/C=C/c1ccc(Cl)cc1	inconclusive: 5.62 µM [inhibitor, single point]	
O=C(O)CCCNc1cc(N2CCN(C3CCCCC3)CC2)c2noc3c2c1C(=O)c1ccccc1-3	inconclusive: 50.1 µM [fluorescent, single point]	
Cc1cc2ccccc2n1CCNC(=O)c1ccccc1	inconclusive: 35.5 µM [fluorescent, side channel, single point]	
CCc1cc2c(=O)n(Cc3ccco3)c(SCC(=O)N(C)C3CCS(=O)(=O)C3)nc2s1 (centres undefined)		inactive: 5.97%
Cc1ccc(CN(C(=O)c2ccccc2F)c2ccccn2)o1	inconclusive: 50.1 µM [fluorescent, side channel, single point]	
CN(C)c1ccc(/C=C(\C#N)C(=O)Nc2nc3c(s2)CCN(Cc2ccccc2)C3)cc1	inconclusive: 39.8 µM [fluorescent, side channel, single point]	
Oc1ccc(NCc2ccccc2OCc2ccccc2F)cc1	inconclusive: 100 µM [inhibitor, single point]	
O=C(NCCNC(=O)c1ccccc1O)c1ccccc1O		inactive: 3.79%
CCn1c(C)[n+](CC)c2ccc(C(=O)N(C)c3ccccc3)cc21		inactive: 7.03%

Three neighbouring compounds out of the list so far:
Structure (SMILES)	Potency	FP activity, negative = inhibition
CCCCc1nc2sc3c(=O)[nH]c(=S)[nH]c3c2c2c1CCC2	inconclusive: 3.55 µM [inhibitor, partial curve, poor fit]	
Cc1ccc(C(=O)Nc2ccc(C(=O)N/N=C/c3c[nH]c4ccccc34)cc2)cc1	inconclusive: 5.01 µM [inhibitor, partial curve, poor fit]	
C/C(=N\NC(=O)c1cccc(N/N=C(\C)c2cc(O)ccc2O)c1)c1cc(O)ccc1O	inconclusive: 0.794 µM [quencher, side channel, full curve, poor fit]	

The listing continues:

Structure (SMILES)	Potency	FP activity, negative = inhibition
CCCCSc1nnc2nc(C)cc(C)n12	inconclusive: 11.2 µM [fluorescent, side channel, partial curve, poor fit]	
Cc1ccc([C@@H]2C3COCC=C3C(C#N)=C(N)C2(C#N)C#N)o1 (some centres undefined)	inconclusive: 14.1 µM [inhibitor, partial curve, poor fit]	
CC(C)CC1=NN(C(=O)c2ccncc2)C(O)(C(F)(F)F)C1 (centres undefined)		inactive: 7.57%
Cc1cc(C)c(S(=O)(=O)N2CCN(C(=O)N3CCOCC3)CC2)c(C)c1	inconclusive: 44.7 µM [inhibitor, single point]	
O=C1c2ccccc2S(=O)(=O)c2cc(N3CCC(C(=O)N4CCCCC4)CC3)ccc21		inactive: -9.55%
Brc1ccc(-c2csc(N3CCOCC3)n2)cc1		inactive: -5.28%
CCN1CCCC(OC(=O)Nc2ccccc2)C1 (centres undefined)	inconclusive: 5.62 µM [inhibitor, partial curve, poor fit]	
C=CCN(c1ccc(C(=O)OC)cc1)S(=O)(=O)c1ccccc1		inactive: 1.5%
COc1ccc(NC(=O)C2=NN(c3ccccc3)C(=O)CC2)cn1	inconclusive: 39.8 µM [inhibitor, single point]	
CC1(C)CC(=O)C2=C(C1)OC(=O)CC2c1cccs1 (centres undefined)	inconclusive: 0.794 µM [inhibitor, full curve, poor fit]	
CC(=O)N1CCN(c2ccccc2NC(=O)c2cccs2)CC1	inconclusive: 50.1 µM [inhibitor, single point]	
Cc1c(OC(C(=O)O)c2ccccc2)ccc2c(-c3ccccc3)cc(=O)oc12 (centres undefined)	inconclusive: 35.5 µM [inhibitor, single point]	
COc1ccc(C2CC(c3ccc(Br)cc3)=NN2C(=S)Nc2ccccc2)cc1 (centres undefined)		inactive: -6.98%
Cc1ccc(NC(=O)CN2C(=O)C3CC=C(Cl)CC3C2=O)cc1 (centres undefined)	inconclusive: 11.2 µM [inhibitor, partial curve, poor fit]	
Cc1cccc(CC(=O)NCCn2c(C)cc3ccccc32)c1	inconclusive: 35.5 µM [inhibitor, partial curve]	
COc1ccc(COC(=O)C2=C(C)NC(=O)NC2c2ccccc2)cc1 (centres undefined)	inconclusive: 8.91 µM [inhibitor, single point]	
O=C(C1CCN(CCc2ccccc2)CC1)N1CCOCC1	inconclusive: 11.2 µM [inhibitor, single point]	
CCOc1ccc(S(=O)(=O)N2CCC(C(=O)NCC3CCCO3)CC2)cc1C (centres undefined)	inconclusive: 44.7 µM [inhibitor, single point]	
CC1C(=O)CCC1(C(=O)O)c1ccccc1 (centres undefined)	inconclusive: 39.8 µM [quencher, side channel, single point]	
COc1ccc(/C=N/n2c(-c3n[nH]c4c3CCC4)n[nH]c2=S)cc1	inconclusive: 28.2 µM [inhibitor, partial curve, poor fit]	
CN1C(=O)NC(NC(=O)c2ccncc2)(C(F)(F)F)C1=O (centres undefined)	inconclusive: 100 µM [inhibitor, single point]	
Cc1ccc(C)c(S(=O)(=O)Nc2ccc(S(=O)(=O)Nc3onc(C)c3C)cc2)c1		inactive: -7.4%

Structure (SMILES)	Potency	FP activity, negative = inhibition
COc1ccc(CNC(=S)Nc2ccc(Br)cc2)cc1	inconclusive: 7.94 µM [inhibitor, full curve, poor fit]	
Cc1cccc(NC(=O)NCCCCc2ccccc2)c1	inconclusive: 28.2 µM [inhibitor, partial curve]	
CCc1cc(C(=O)OC)c(NC(=O)CN2CCN(C(=O)C3CCCO3)CC2)s1 (centres undefined)	inconclusive: 50.1 µM [inhibitor, single point]	
Cc1cccc(-n2c(CNC(=O)c3ccc(S(=O)(=O)N4CCCC4)cc3)n[nH]c2=S)c1	inconclusive: 50.1 µM [inhibitor, partial curve, poor fit]	
c1cc(-c2sc(-c3ccncc3)c(-c3ccncc3)c2-c2ccncc2)ccn1		inactive: 1.96%
COc1cccc(NC(=O)C2CCN(c3nn4cc(-c5ccc(F)cc5)nc4s3)CC2)c1	inconclusive: 100 µM [inhibitor, single point]	
Cc1cc(C(C)(C)CC(C)(C)C)ccc1OCCOCC[N+](C)(C)Cc1ccccc1	inconclusive: 11.2 µM [inhibitor, partial curve, poor fit]	
O=C(NCc1ccco1)C(=O)c1cn(CC(=O)N2CCCCC2)c2ccccc12	inconclusive: 0.316 µM [inhibitor, full curve, poor fit]	
CC(OC(=O)C1CCN(S(=O)(=O)c2ccccc2C(F)(F)F)CC1)C(=O)N(C)Cc1ccccc1 (centres undefined)	inconclusive: 3.55 µM [inhibitor, full curve, poor fit]	
COc1ccccc1C(=O)Nc1ccnn1C1CCN(C/C=C/c2ccccc2)CC1		inactive: -2.3%
CCN(CC)c1ccc(/C=N/OCC(=O)Nc2cccc(C)c2)cc1		inactive: -6.19%
CCN(C(=O)c1coc(=O)c2ccccc12)c1ccccc1C	inconclusive: 28.2 µM [quencher, side channel, partial curve, poor fit]	
Cc1cc(/C=C(\C#N)C(=O)Nc2ccccc2)c(C)n1-c1ccc(C(=O)O)cc1	inconclusive: 8.91 µM [inhibitor, partial curve, poor fit]	
Cc1ccc(-n2ncc(C(=O)NCCc3c[nH]c4ccccc34)c2C2CCN(C(=O)OC(C)(C)C)CC2)cc1C	inconclusive: 50.1 µM [quencher, side channel, single point]	
COc1ccc(NC(=O)CCS(=O)(=O)c2ccc3nc(C)sc3c2)cc1Cl		inactive: -3.08%
CCOC(=O)Cc1cc(=O)n2[nH]c(C)c(-c3ccccc3)c2n1	inconclusive: 50.1 µM [fluorescent, single point]	
Cc1cc(C(=O)COc2ccccc2C(N)=O)c(C)n1C	inconclusive: 6.31 µM [inhibitor, full curve, poor fit]	
CCn1cc(C(=O)N2CCCC(N3CCN(c4cccc(C(F)(F)F)c4)CC3)C2)cn1 (centres undefined)	inconclusive: 35.5 µM [inhibitor, partial curve, poor fit]	
O=C(CCn1cccc1)NCc1ccccc1	inconclusive: 12.6 µM [inhibitor, partial curve, poor fit]	
CC(=O)c1cccc(NC(=O)Nc2ccc3c(c2)OCO3)c1		inactive: -7.65%
